# Primary screen of a compound library

Chains of the proteins cited; added tags and fusions are not shown.
UniProt E9BF75, entry or part of it: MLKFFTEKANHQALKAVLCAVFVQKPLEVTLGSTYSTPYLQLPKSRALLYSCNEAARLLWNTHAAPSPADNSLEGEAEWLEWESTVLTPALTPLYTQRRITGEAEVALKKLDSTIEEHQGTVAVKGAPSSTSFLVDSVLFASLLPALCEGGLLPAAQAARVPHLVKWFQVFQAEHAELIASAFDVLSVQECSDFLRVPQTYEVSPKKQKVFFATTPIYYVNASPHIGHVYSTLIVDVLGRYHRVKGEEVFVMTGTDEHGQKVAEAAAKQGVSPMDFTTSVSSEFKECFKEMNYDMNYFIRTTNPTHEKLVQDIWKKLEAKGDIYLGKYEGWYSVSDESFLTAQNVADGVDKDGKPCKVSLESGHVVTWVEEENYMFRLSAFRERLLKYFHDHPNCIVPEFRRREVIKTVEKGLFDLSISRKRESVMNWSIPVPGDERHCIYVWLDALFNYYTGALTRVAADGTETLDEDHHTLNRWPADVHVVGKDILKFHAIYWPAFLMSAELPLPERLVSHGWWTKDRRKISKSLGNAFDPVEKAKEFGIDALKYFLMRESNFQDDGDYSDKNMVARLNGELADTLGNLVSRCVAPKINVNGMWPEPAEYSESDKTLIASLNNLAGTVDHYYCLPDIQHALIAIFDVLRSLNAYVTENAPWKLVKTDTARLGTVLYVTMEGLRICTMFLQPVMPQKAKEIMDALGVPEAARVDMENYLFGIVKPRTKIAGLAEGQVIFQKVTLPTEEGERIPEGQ

Source: ChEMBL document CHEMBL3988442, “University of Dundee, Small-Polar-MMV Screening Library” (2021).

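Primary screen of methionyl-tRNA synthetase; the read-out is not stated. Target: Methionyl-tRNA synthetase (putative), Leishmania donovani (UniProt E9BF75). The test concentration is not given. The values are filed as inhibition. About 68,000 compounds were tested under these conditions; 0.035% (about 24) showed 50% or more at least once.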

Results are percentages, as filed. The record does not define 0% and 100%; most values in the screen are far below 50% and negative numbers occur (in some assays of this library far below -100). This is an unselected part of the compounds tested.

{"structure": "Cc1cc(CN(CC(N)=O)CC(C)C)no1", "Inhibition": 21.45}
{"structure": "O=C(c1ccncc1)N1CCC(c2nc(O)cc(-c3ccncc3)n2)C1", "stereo": "stereo not drawn", "Inhibition": 10.1}
{"structure": "CC(=O)N1CC(C)CN(C(=O)c2cnccn2)c2ccccc21", "stereo": "stereo not drawn", "Inhibition": -11.75}
{"structure": "CC(C)N(C)Cc1cnc2n1CCN(C(=O)NC1CCCC1)C2", "Inhibition": 5.226}
{"structure": "Cn1cc(CN2CCn3cc(CNC(=O)CC4CC4)nc3C2)cn1", "Inhibition": 13.65}
{"structure": "Cc1cc(NC(=O)CNC(C)(C)c2ccccc2)on1", "Inhibition": 12.93}
{"structure": "CCc1ncc2c(n1)CN(Cc1ncc(C(C)(C)C)o1)CC2", "Inhibition": 8.383}
{"structure": "CN(C)c1cc(C(=O)Nc2cccnc2N2CCSCC2)ccn1", "Inhibition": 11.76}
{"structure": "Cc1cnc(CN2CCC(N(C)Cc3noc(C4CC4)n3)C2)o1", "stereo": "stereo not drawn", "Inhibition": 0}
{"structure": "N#Cc1cn[nH]c1NCc1cc(Cl)cc(Cl)c1O", "Inhibition": 8.108}
{"structure": "O=C(c1ncccn1)N1CC[C@H]2OCC[C@@]2(COc2ccccn2)C1", "Inhibition": 3.093}
{"structure": "Cc1ccccc1-c1noc(CN2CCc3nn(C)c(=O)cc3C2)n1", "Inhibition": 16.47}
{"structure": "O=C(c1cnn2c1OCCC2)N1CCC2(CC1)OCCO2", "Inhibition": 19.61}
{"structure": "Cc1cccc(-c2nccn2C2CC(=O)N(C(C)C)C2)n1", "stereo": "stereo not drawn", "Inhibition": -3.581}
{"structure": "Cc1cc(N[C@@H](CO)c2ccccc2)n2nc(C)c(C)c2n1", "Inhibition": 14.07}
{"structure": "Cn1cc(Cl)cc1C(=O)N1CCCN(Cc2nccn2C)CC1", "Inhibition": 4.737}
{"structure": "Cc1cc(C(=O)N2CCC3(CCN3Cc3ccc(F)cc3)C2)no1", "stereo": "stereo not drawn", "Inhibition": 11.67}
{"structure": "Cc1ccsc1C(=O)N1CCn2cnc(COCC3CC3)c2C1", "Inhibition": 16.31}
{"structure": "Cc1nn(C)c(C)c1CN(Cc1cccn1-c1cccnc1)C(C)C", "Inhibition": 12.1}
{"structure": "CN(Cc1cc(F)cc2cccnc12)CC1CCN(CCO)CC1", "Inhibition": 6.849}
{"structure": "O=C(CCOCc1ccccc1)NS(=O)(=O)N1CCOc2ccccc21", "Inhibition": 14.42}
{"structure": "O=C1CCCN1Cc1ncn2c1CN(C(=O)C1CC=CC1)CCC2", "Inhibition": 13.2}
{"structure": "N[C@H]1CN(C(=O)CCc2ccccn2)C[C@@H]1c1ccccc1", "Inhibition": 9.61}
{"structure": "CN1CCC(N2CCN3C(=O)NC[C@H]3C2)CC1", "Inhibition": 12.78}
{"structure": "CC1CCN(C)c2ccccc2N1C(=O)c1ccc(=O)n(C)n1", "stereo": "stereo not drawn", "Inhibition": 15.14}
{"structure": "Cc1noc(CCCNS(=O)(=O)N2CCCC2c2ccco2)n1", "stereo": "stereo not drawn", "Inhibition": 10.8}
{"structure": "CCN(C(=O)CS(=O)(=O)c1cc(OC)c(OC)cc1C)C1CC1", "Inhibition": 12.47}
{"structure": "Cn1cnc2c1CCN(Cc1csc(-c3ccc(F)cc3)n1)C2", "Inhibition": 12.72}
{"structure": "COc1ncccc1C(=O)N1CCC(c2nc3c(C)cccc3[nH]2)CC1", "Inhibition": 11.37}
{"structure": "CCc1nc(NCCCn2cccn2)c2c(n1)c(C)nn2CC", "Inhibition": -9.799}
{"structure": "Cc1occc1C(=O)N1CCn2cnc(COCC3CC3)c2C1", "Inhibition": 7.801}

The first 3 entries again:

{"structure": "Cc1cc(CN(CC(N)=O)CC(C)C)no1", "Inhibition": 21.45}
{"structure": "O=C(c1ccncc1)N1CCC(c2nc(O)cc(-c3ccncc3)n2)C1", "stereo": "stereo not drawn", "Inhibition": 10.1}
{"structure": "CC(=O)N1CC(C)CN(C(=O)c2cnccn2)c2ccccc21", "stereo": "stereo not drawn", "Inhibition": -11.75}